{
  "sequences": {"note": "Amino acid sequences for entries named in this document (tags omitted).", "UniProt P09429": "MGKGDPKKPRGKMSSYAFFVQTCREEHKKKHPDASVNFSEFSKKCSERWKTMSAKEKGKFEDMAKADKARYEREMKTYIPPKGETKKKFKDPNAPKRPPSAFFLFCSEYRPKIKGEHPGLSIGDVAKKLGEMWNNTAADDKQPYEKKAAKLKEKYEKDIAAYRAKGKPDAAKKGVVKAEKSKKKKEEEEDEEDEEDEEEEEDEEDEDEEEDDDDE"},
  "source": "paper doi:10.1101/258285",
  "binders": {"B1": {"name": "purified PrxI (enzyme, UniProt Q06830 1-199)", "chain": "MSSGNAKIGHPAPNFKATAVMPDGQFKDISLSDYKGKYVVFFFYPLDFTFVCPTEIIAFSDRAEEFKKLNCQVIGASVDSHFCHLAWVNTPKKQGGLGPMNIPLVSDPKRTIAQDYGVLKADEGISFRGLFIIDDKGILRQITVNDLPVGRSVDETLRLVQAFQFTDKHGEVCPAGWKPGSDTIKPDVQKSKEYFSKQK"}, "B2": {"name": "purified PrxII (enzyme, UniProt P32119 1-198)", "chain": "MASGNARIGKPAPDFKATAVVDGAFKEVKLSDYKGKYVVLFFYPLDFTFVCPTEIIAFSNRAEDFRKLGCEVLGVSVDSQFTHLAWINTPRKEGGLGPLNIPLLADVTRRLSEDYGVLKTDEGIAYRGLFIIDGKGVLRQITVNDLPVGRSVDEALRLVQAFQYTDEHGEVCPAGWKPGSDTIKPNVDDSKEYFSKHN"}, "B3": {"name": "endogenous mouse PrxI, P35700 1-199 (enzyme)", "chain": "B1 chain with H10Y, D33E, E64D, V88I, V105I, V144I, T156I, L157I, Q189N"}, "B4": {"name": "endogenous mouse PrxII, Q61171 1-198 (enzyme)", "chain": "MASGNAQIGKSAPDFTATAVVDGAFKEIKLSDYRGKYVVLFFYPLDFTFVCPTEIIAFSDHAEDFRKLGCEVLGVSVDSQFTHLAWINTPRKEGGLGPLNIPLLADVTKSLSQNYGVLKNDEGIAYRGLFIIDAKGVLRQITVNDLPVGRSVDEALRLVQAFQYTDEHGEVCPAGWKPGSDTIKPNVDDSKEYFSKHN"}},
  "key": {"[1]": {"target": "purified HMGB1 (UniProt P09429)", "experiment": "co-IP"}, "[2]": {"target": "T1, endogenous mouse PrxI (mouse (endogenous in BMDMs)), P35700", "T1 chain": "B1 chain with H10Y, D33E, E64D, V88I, V105I, V144I, T156I, L157I, Q189N", "experiment": "nonreducing SDS-PAGE with immunoblot", "conditions": "remark: other sources report otherwise"}, "[3]": {"target": "T2, endogenous mouse PrxII (mouse (endogenous in MEFs and BMDMs)), Q61171", "T2 chain": "B4 chain", "experiment": "nonreducing SDS-PAGE with immunoblot", "conditions": "remark: other sources report otherwise"}},
  "note": "Changes are numbered by the printed parent chain. These are yes or no findings as the source states them, for the method shown. Some results given as binding are weak or reduced against the parent protein; the word gives no strength.",
  "data": [
    {"binder": "B1", "values": [
      {"measurement": "binding", "setting": "[1]", "value": "binds"}
    ]},
    {"binder": "B2", "values": [
      {"measurement": "binding", "setting": "[1]", "value": "binds"}
    ]},
    {"binder": "B3", "values": [
      {"measurement": "binding", "setting": "[2]", "value": "binds"}
    ]},
    {"binder": "B4", "values": [
      {"measurement": "binding", "setting": "[3]", "value": "binds"}
    ]}
  ]
}
